Binding data for 1 substance are collected here from paper PMC4041471, “Cas6 specificity and CRISPR RNA loading in a complex CRISPR-Cas system” (Nucleic Acids Research, 2014).

By UniProt entry, the sequences of proteins in these tests, tags left out.
UniProt P0A6F5: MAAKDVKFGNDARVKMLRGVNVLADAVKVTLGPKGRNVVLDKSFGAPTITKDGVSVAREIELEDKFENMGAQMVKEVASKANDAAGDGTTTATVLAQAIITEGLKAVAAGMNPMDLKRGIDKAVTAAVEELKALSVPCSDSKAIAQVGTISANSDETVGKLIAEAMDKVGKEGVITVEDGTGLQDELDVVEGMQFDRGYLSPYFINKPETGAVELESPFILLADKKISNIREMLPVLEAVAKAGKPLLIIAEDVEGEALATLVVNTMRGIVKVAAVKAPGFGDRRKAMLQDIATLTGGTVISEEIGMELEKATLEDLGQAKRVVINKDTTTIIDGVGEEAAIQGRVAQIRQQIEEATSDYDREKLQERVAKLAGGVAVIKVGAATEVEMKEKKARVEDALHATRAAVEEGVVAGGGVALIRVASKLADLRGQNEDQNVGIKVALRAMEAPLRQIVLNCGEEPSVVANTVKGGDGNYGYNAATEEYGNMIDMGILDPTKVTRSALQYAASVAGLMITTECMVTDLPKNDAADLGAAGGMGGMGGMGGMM

The target in the experiment is T1, MBP-Cas6-3 (MBP-Sso1422 fusion protein) (S. solfataricus) (UniProt Q97YB0).
T1 sequence: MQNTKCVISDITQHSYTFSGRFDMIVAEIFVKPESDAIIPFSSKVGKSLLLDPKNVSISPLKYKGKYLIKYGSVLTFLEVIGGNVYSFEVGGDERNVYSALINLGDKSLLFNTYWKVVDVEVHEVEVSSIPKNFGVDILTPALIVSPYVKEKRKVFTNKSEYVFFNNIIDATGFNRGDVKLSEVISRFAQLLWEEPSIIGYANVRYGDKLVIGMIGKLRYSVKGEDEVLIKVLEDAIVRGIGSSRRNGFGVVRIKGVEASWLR
The experiment can be described thus: co-purification (immobilised metal affinity chromatography, then SEC); cleared E. coli C43 lysate on HisTrap FF (50 mM Tris-HCl pH 7.5, 500 mM NaCl, 30-500 mM imidazole, 10% glycerol), then Superdex 200 10/300 in 20 mM Tris-HCl pH 7.5, 300 mM NaCl, 10% glycerol.

Results are given in words; binding and its absence hold for the method and conditions named. Some results given as binding are weak or reduced against the parent protein; the word gives no strength. Where a sequence is shown, tags or fusion partners need not be part of it.

As to “E. coli chaperone GroEL (from UniProt P0A6F5 1-548)”, the binding result is reported as “binds”.
